Laboratory results from paper doi:10.1101/312165.
Results are given in words; binding and its absence hold for the method and conditions named. Binding seen in cells or lysates may run through a third protein. Where a sequence is shown, tags or fusion partners need not be part of it. One block for each molecule: values may come before it.

By UniProt entry, the sequences of proteins in these tests, tags left out. Residues count along the entry.
UniProt Q00604, residues 25-133: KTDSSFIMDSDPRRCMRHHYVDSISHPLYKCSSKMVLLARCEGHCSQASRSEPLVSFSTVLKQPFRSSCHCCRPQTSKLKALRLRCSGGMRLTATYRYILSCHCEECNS

Key:
[1] = target: T1, retinoschisin (human (endogenous in retina)) (UniProt O15537); assay: co-IP
T1 sequence: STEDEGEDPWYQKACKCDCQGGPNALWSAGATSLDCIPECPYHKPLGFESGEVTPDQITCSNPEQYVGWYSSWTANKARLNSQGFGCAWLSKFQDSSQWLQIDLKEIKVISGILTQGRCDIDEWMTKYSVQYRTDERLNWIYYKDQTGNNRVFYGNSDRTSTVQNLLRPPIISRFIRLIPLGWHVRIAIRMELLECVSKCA

[2] = target: norrin (human (endogenous in retina)) (UniProt Q00604); assay: co-IP

binding [1]: no binding
Molecule: norrin (from UniProt Q00604 25-133)

binding [2]: no binding
B1: retinoschisin (protein, UniProt O15537 24-224)
chain: T1 sequence
